Read-outs that look alike come from different tables or passages of the source.

The values that follow come from patent US20250070172A1, “ANTHRAQUINONE-BASED ACTIVE MATERIAL” (MITSUBISHI HEAVY INDUSTRIES, LTD., priority 2021, published 2025).

A short description of data set [1]: Charge-discharge cycle test in a redox flow battery, compound as negative electrode active material. The settings on record: 100 mA/cm^2, 30° C.
The conditions of data set [2]: redox flow battery with potassium ferrocyanide as positive electrode active material, cited from earlier work.

`O=C(O)CCCOc1ccc2c(c1)C(=O)c1ccc(O)cc1C2=O` [Example 1, 2-(3′-carboxypropyloxy)-6-hydroxy-9,10-anthraquinone]: the “Rate of capacity decrease during discharge” value in data set [1] (calculated from capacity in second cycle and 3834th cycle, cutoff 1.4 V / 0.6 V) is on record as 0.5 %/day. The same molecule registered a Cell voltage in data set [1] (redox flow battery, ferrocyanide/ferricyanide positive electrolyte, negative electrolyte in 1 mol/L KOH, voltage during discharge) of 1.1 V.
Consider `O=C1c2ccc(O)cc2C(=O)c2ccc(O)cc21` [Comparative Example 1, 2,6-dihydroxyanthraquinone], for which the “Rate of capacity decrease during discharge” value in data set [2] (from Figure S7 of the cited document) is reported as approximately 5 %/day. In addition, in data set [2] (from Table S2 of the cited document), the Cell voltage was 1.20 V.
